Reference: PubChem BioAssay AID493014 (National Center for Advancing Translational Sciences (NCATS), 2011)
This is one part of the list. The main result of the screen is listed elsewhere. These columns were measured beside it and carry no call. Most of these compounds were active or inconclusive in the main read-out, so they are no random draw. The note in brackets gives the kind of curve behind each potency; many fits are weak.

Test: qHTS Assay to Find Inhibitors of Chronic Active B-Cell Receptor Signaling
Settings: ABC-DLBCL IkBa-CBG/CBR reporter, luminescence ratio (green luciferase fused to IkBa over red control in TMD8 lymphoma cells), 4 h
Method in brief: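 Doxycycline induced both beetle luciferases in TMD8 lymphoma cells; IKK-driven degradation limits the IkappaBalpha-fused green signal, while red luminescence normalises for cell number and nonspecific effects. Compounds tested up to 46 uM, 4 hrs.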

[1] = measured here: CBR red luminescence, cell number
[2] = measured here: IkBa-CBG green luminescence

| SMILES | AC50 [1] | AC50 [2] |
| --- | --- | --- |
| Cc1ccc(Nc2cc(C)nc(-c3ccccc3O)n2)cc1 | 8.2 µM [falling, single point] |  |
| Cc1ccc2nc(/C(C#N)=C\c3cc(O)ccc3[N+](=O)[O-])[nH]c2c1 | 2.82 µM [falling, partial curve, poor fit] |  |
| Cc1nnc(NC(=O)c2cc(S(=O)(=O)N3CCCCC3)ccc2Cl)s1 | 25.1 µM [falling, single point] |  |
| Cc1csc(NC(=O)Nc2cccc(Cl)c2)n1 | 16.4 µM [falling, single point] |  |
| CC(C)(C)c1ccc2c(c1)C(=O)c1ccccc1C2=O | 10.3 µM [rising, partial curve, poor fit] |  |
| O=C1c2ccccc2-c2nc3ccccc3n21 | 8.91 µM [falling, single point] |  |
| CN(C)c1ccc(C(CN)c2c[nH]c3ccccc23)cc1 (centres undefined) | 35.5 µM [falling, single point] |  |
| COc1ccc(C(=O)NCc2ccc3c(c2)CCN3C(=O)c2cccc(C)c2)cc1OC | 15.8 µM [falling, single point] |  |
| O=C(NC(=S)Nc1ccc(N2CCN(C(=O)c3ccccc3)CC2)cc1)c1cccs1 | 7.08 µM [falling, full curve, poor fit] |  |
| N/C(=N\N=C\c1ccc(O)c(O)c1)c1nonc1N | 14.1 µM [falling, single point] |  |
| CCCOc1ccc(C2NC(=O)NC(c3ccccc3)=C2C(C)=O)cc1OCC (centres undefined) | 0.259 µM [falling, full curve, poor fit] |  |
| O=C(COC(=O)c1ccc(F)c(S(=O)(=O)N2CCOCC2)c1)NCc1ccccc1 | 3.66 µM [rising, full curve, poor fit] |  |
| Nc1[nH]c(N=NC(=O)c2ccccc2O)c2ccccc12 | 2.91 µM [falling, full curve] |  |
| O=C(Nc1ccncc1)c1ccccc1F | 20 µM [falling, single point] |  |
| CN(C)c1ccc(C(=O)Nc2nc3c(s2)CCCC3)cc1 | 6.51 µM [falling, full curve] |  |
| COc1ccc2[nH]c(=O)c3c(c2c1)OC(C)(C)C=C3 | 11.2 µM [falling, partial curve] | 8.91 µM [rising, partial curve, poor fit] |

As a short view, some entries already given:

| SMILES | AC50 [1] | AC50 [2] |
| --- | --- | --- |
| Cc1ccc2nc(/C(C#N)=C\c3cc(O)ccc3[N+](=O)[O-])[nH]c2c1 | 2.82 µM [falling, partial curve, poor fit] |  |
| Cc1nnc(NC(=O)c2cc(S(=O)(=O)N3CCCCC3)ccc2Cl)s1 | 25.1 µM [falling, single point] |  |
| Cc1csc(NC(=O)Nc2cccc(Cl)c2)n1 | 16.4 µM [falling, single point] |  |

Next part.

| SMILES | AC50 [1] | AC50 [2] |
| --- | --- | --- |
| Cc1nn(-c2ccccc2)c(C)c1C(=O)NCc1ccc(S(N)(=O)=O)cc1 | 14.1 µM [falling, single point] |  |
| CCCCCNC(=O)c1cccc(S(=O)(=O)N2CC3(C)CC2CC(C)(C)C3)c1 (centres undefined) | 20.6 µM [falling, single point] |  |
| CC(=O)Oc1ccc(N2C(=O)C3C4C=CC(CO)(O4)C3C2=O)cc1 (centres undefined) | 20.6 µM [falling, single point] | 14.6 µM [rising, partial curve, poor fit] |
| O=C(COc1ccccc1F)Nc1ccc2c(c1)OCCO2 | 35.5 µM [falling, single point] |  |
| CCOCC(O)CNC(=O)c1ccc(OC2CCN(C(=O)c3cccnc3)CC2)cc1 (centres undefined) | 11.2 µM [rising, partial curve] |  |
| O=C(NCc1ccco1)c1cc(-c2ccccc2)on1 | 10.3 µM [falling, partial curve] |  |
| CCCC(=O)NNC(=O)CCC(=O)Nc1ccccc1Cl | 7.08 µM [rising, full curve, poor fit] |  |
| CN1c2ccc(Cl)cc2C(=O)NC1C1CC=CCC1 (centres undefined) | 1.41 µM [rising, partial curve] |  |
| O=C(Nc1ccc(Cl)cc1)Nc1ccc(Cl)c(Cl)c1 | 29.1 µM [falling, single point] |  |
| O=C(NCc1ccccc1F)C1CCCN1C(=O)Nc1cccc(F)c1 (centres undefined) | 3.98 µM [rising, partial curve] |  |
| CCN(CC)c1ccc(NC(=O)CN2CCN(CC(=O)Nc3ccccc3F)CC2)cc1 |  | 16.4 µM [falling, partial curve, poor fit] |
| O=C(CSCc1ccccc1Cl)NCc1ccc(Cl)c(Cl)c1 | 1.58 µM [rising, partial curve, poor fit] |  |
| COc1ccc(OCC(O)Cn2c(Br)nc3c2c(=O)[nH]c(=O)n3C)cc1 (centres undefined) | 32.6 µM [rising, partial curve, poor fit] | 29.1 µM [falling, single point] |
| C=CCNC(=S)NNC(=O)c1ccc(OCC(C)C)cc1 | 0.13 µM [falling, full curve, poor fit] |  |
| CCOc1cc(/C=N/NC(=O)c2cccnc2)ccc1OC(=O)c1ccco1 | 0.501 µM [falling, partial curve, poor fit] |  |
